PubChem BioAssay AID1347423 (Functional Genomics Laboratory (NCATS/FGL), 2020)
The whole screen tested about 52,000 sequences, of which about 210 (0.4%) were called active.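 The calls were made as follows: active = gene whose silencing raises cell survival under the drug, median off-target-corrected z-score across its silencing RNAs 2 or more; inactive = the rest.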 Some of the results follow.

Assay: Resistance to Poly (ADP-Ribose) Polymerase inhibitor: Gene Identification via Genome-wide siRNA Screen
Conditions: mouse BRCA2 R2336H ES cells, olaparib, CellTiter-Glo viability; active compounds read high
Method in brief: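 Genome-wide siRNA screen (3 siRNAs/gene, 20 nM) in mouse ES cells carrying hypomorphic BRCA2 R2336H; olaparib 500 nM added 48 h post-transfection, CellTiter-Glo viability 72 h later. Normalized to plate-median negative control; MAD z-scores, gene median, seed-adjusted.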

| Sequence | z-score |
| --- | --- |
| GGUUCUCCAUACUUAUGCCTT against G630042G04 | inactive: 0.393 |
| GCCAAGAUGUGGCAACCCATT against Mmp2 | inactive: 0.64 |
| GGAGUUCCUCACACUAAUCTT against Gch1 | inactive: 1.64 |
| GCAAGCUAUUCCACCAUUGTT against 9830002I17Rik | inactive: -0.923 |
| GGGUCCCUAAGCAUGUUCCTT against Slfn10 | inactive: 1.48 |
| GCUGAACAAACCCACCGGUTT against Ppox | inactive: 0.81 |
| GCUGCUACUCUGGAGAAGCTT against Fcrlm2 | inactive: 0.566 |
| GUCCUUCUCAUCAUGGGACTT against Sec61g | inactive: -0.199 |
| GGAAUCUUCCACAAGCUGUTT against Papolb | inactive: 1.06 |
| GGAUUGUUGAAAGAAACAUTT against Mrpl32 | inactive: -0.639 |
| CCAUUCUCUUUACCUCAAUTT against Rdh12 | inactive: -0.0664 |
| GCCCUCUUAGGAGUGAUUATT against Zfp219 | inactive: 2.02 |
| CCAAGGGUCACCUAUUUUUTT against Kcna5 | inactive: -1.84 |
| CAAGACUAUUUGGCCUGAGTT against Gbx1 | inactive: -3.07 |
| GGCUGGAGAAAAUGAUGAATT against Rwdd1 | inactive: 0.719 |
| GGAAGAGAUGAAGAAAAUGTT against Cetn1 | inactive: 0.507 |
| GGUGUGCCCUAUGAAUCGATT against Itpr2 | inactive: 2.26 |
| GGACUUUCUUCCAUCAAAUTT against Ick | inactive: 0.573 |
| GGACUCUCUGAAUAACAACTT against Mapk8ip2 | inactive: -1.29 |
| GGGAACCAGAAUUCACAAATT against Trp53inp2 | inactive: 0.597 |
| GCUAGAGGUGACUGAUGUCTT against 2610036D13Rik | inactive: -1.98 |
| GGACAAAAGAUUCUUCAUCTT against Mtap1b | inactive: 0.839 |

Some values from the results shown:
Entry of CCAAGGGUCACCUAUUUUUTT against Kcna5 under z-score: inactive: -1.84
Entry of GCAAGCUAUUCCACCAUUGTT against 9830002I17Rik under z-score: inactive: -0.923
Entry of GGACUUUCUUCCAUCAAAUTT against Ick under z-score: inactive: 0.573

The list goes on.

| Sequence | z-score |
| --- | --- |
| GGAAUCUGCACCAUUUUCCTT against Lrrc28 | inactive: 0.791 |
| GGACAACUAUGGGACAGAGTT against LOC626846 | inactive: -1.3 |
| GGCAAAAGGGACAAAAACUTT against Gadd45a | inactive: 1.19 |
| CCUAUAGCUUGGUAACAGGTT against Gnb1l | inactive: 0.328 |
| GGGAUAUCUCGCUUCUAUATT against 2610003J06Rik | inactive: 0.108 |
| GCGAGACCGUUCAAUAAAGTT against Gnefr | inactive: 0.232 |
| GGUUCUUUCCUUGUUUUACTT against Olfr448 | inactive: 0.113 |
| GGACUCCUAAGUGUAACAGTT against 9130221H12Rik | inactive: -1.04 |
| GGUGCUGAACUACAUGUACTT against Zfp161 | inactive: 0.846 |
| GCUGUGUUAGAAAGCAGGCTT against 4931406H21Rik | inactive: 0.698 |
| GGCUAACCGAAGCCAUCCUTT against Wbp5 | inactive: -0.825 |
| GGCAGUCUGUCAGAUCAAUTT against 4932411G14Rik | inactive: -1.08 |
| GCACUAUGUGGAGAGAUUGTT against Esrrb | inactive: 0.946 |
| GGAUUUUAAACAAAAGACCTT against Stard13 | inactive: -1.05 |
| GGAAUUCAUGAAGACUUGGTT against Calb1 | inactive: 0.0977 |
| GAGACACUUGUGCUGUAGGTT against F730035P03Rik | inactive: 0.243 |
| AUGGAGUCCUACAUUCUAGTT against LOC432582 | inactive: -0.964 |
| GGAGGUCUACAUUUAUUAATT against 2500002K03Rik | inactive: -0.962 |
| GGUAAUGUGCAACACUGUGTT against Zfp13 | inactive: -0.189 |
| GGAAGCUAGAUUUUGAGUATT against V1re11 | inactive: 0.539 |
| GGUGUUUCCAAUUAGGAAATT against Gjb1 | inactive: 1.54 |
| GGGCCUUCAAAACGAGAAGTT against 4732474A20Rik | inactive: -1.22 |

| Sequence | z-score |
| --- | --- |
| GGUUAGUAGUCUUCUUAUCTT against Olfr1173 | inactive: 1.32 |
| GGAGAAAAUAGAGACUCAATT against Scg2 | inactive: 1.49 |
| GGUUCUAUUACAAGAAAGGTT against Enpp6 | inactive: 1.05 |
| CUGUUACCUAUCCCUCAUCTT against Sstr3 | inactive: -0.647 |
| GGAGCUAAAAGAGAUCAACTT against Bicd2 | inactive: -0.649 |
| GGUUUAGAUGAUUUCUUCCTT against Ap3m1 | inactive: -0.189 |
| GGAGAAGCUGAAAUUUCUGTT against Tesc | inactive: -0.75 |
| GGUUGUCGCCAGAAUCAAGTT against Slc9a3r2 | inactive: 0.752 |
| GGACUCUUUUGGACCUAAGTT against 2310016C08Rik | inactive: 0.828 |
| CCCAUUUAAAUACAUACGATT against Ly9 | inactive: 1.31 |
| GAGAGUAUCACCUUCAUUUTT against 1810019J16Rik | inactive: -1.72 |
| GGUCACAGAAUGAAUGACUTT against Prss25 | inactive: 0.368 |
| GCCCUCUGAUAUGUUGAACTT against Ppil5 | inactive: 1.06 |
| GCAAGUCAUAACGAGGACUTT against 2310005E10Rik | inactive: -0.854 |
| GGUGAAACUGGAAGAUUCUTT against 6030413G23Rik | inactive: 1.14 |
| GGGCAAGACUUAAUUUUGGTT against Dppa1 | inactive: 0.482 |
| GGAAAGUUGAUAGAAAGUGTT against D19Ertd386e | inactive: -0.602 |
| GGAUGACUGUUAUUUUUGUTT against Sema4g | inactive: -0.237 |
| CGUGUAUCAUCUCAAGUGUTT against Lmo4 | inactive: 0.364 |
| GGUUGCUUCAUUGAUGUAUTT against Olfr867 | inactive: -0.825 |
| GGAGUAGAAGAAGAGGAGUTT against Mrpl50 | inactive: -0.751 |
| CGUACCUAAUCUGCCUAUCTT against Zic3 | inactive: -0.299 |
